The test system of this assay is HT-29. In words: Antiproliferative activity against human HT-29 cells after 96 hrs by MTT assay. Type of assay: functional, cell-based. The following applies: HT-29, 96 h. The procedure, abridged: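 HT-29 (ATCC HTB 38) in RPMI 1640 + 10% fetal bovine serum, gentamicin 50 µg/ml; seeded 4000 cells/cm2, 200-µl cultures with or without agent, 96 h. MTT (5 mg/ml in medium, 75 µl) added for 90 min; formazan read at 570 nm. Absorbance as percent of untreated wells; IC50 by linear regression of logit-transformed data.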
On the technique in general: Tetrazolium assays rely on reduction of a dye to a coloured formazan, in cell work by metabolically active cells.

pIC50: −log10 of the molar value.

A word on the pIC50: it is the IC50 on a negative log10 scale, so that one unit is a factor of ten.

As to `COc1cc2c(c(OC)c1OC)-c1ccc(OC)c(=O)cc1[C@@H](NC(C)=O)CC2` [COLCHICINE], the negative logarithm of the IC50 (pIC50) is 7.74.

The values above are taken from ChEMBL document CHEMBL1147285, “A mammalian cell agar-diffusion assay for the detection of toxic compounds” (J Nat Prod, 1989).
